In paper PMC4081934:
Results are given in words; binding and its absence hold for the method and conditions named. In cells and extracts the contact can be indirect. Some entries that bind do so weakly or less than the wild type.

By UniProt entry, the sequences of proteins in these tests, tags left out.
UniProt Q9UNM6: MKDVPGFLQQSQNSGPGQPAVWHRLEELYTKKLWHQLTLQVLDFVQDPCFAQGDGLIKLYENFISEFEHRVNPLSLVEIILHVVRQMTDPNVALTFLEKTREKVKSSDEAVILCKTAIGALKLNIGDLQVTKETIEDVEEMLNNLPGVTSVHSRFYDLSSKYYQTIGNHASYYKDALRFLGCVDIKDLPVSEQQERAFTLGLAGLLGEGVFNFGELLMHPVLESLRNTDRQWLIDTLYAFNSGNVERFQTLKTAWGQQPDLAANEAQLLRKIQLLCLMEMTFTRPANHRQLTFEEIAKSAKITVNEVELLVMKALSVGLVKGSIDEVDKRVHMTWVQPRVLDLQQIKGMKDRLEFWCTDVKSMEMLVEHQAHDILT

Biological target: PSMD13-FLAG fusion protein (26 S proteasome non-ATPase regulatory subunit 13) (UniProt Q9UNM6)
Experiment: co-IP; PSMD13-FLAG co-expressed with WT or mutant RPE65 in 293T-LC cells; lysis in 50 mM Tris-HCl pH 7.4, 150 mM NaCl, 1 mM EDTA, 0.5% Nonidet P-40; anti-FLAG M2 affinity gel; precipitates probed for RPE65 and FLAG

B1: wild-type human RPE65 (enzyme, UniProt Q16518 1-533)
chain: MSIQVEHPAGGYKKLFETVEELSSPLTAHVTGRIPLWLTGSLLRCGPGLFEVGSEPFYHLFDGQALLHKFDFKEGHVTYHRRFIRTDAYVRAMTEKRIVITEFGTCAFPDPCKNIFSRFFSYFRGVEVTDNALVNVYPVGEDYYACTETNFITKINPETLETIKQVDLCNYVSVNGATAHPHIENDGTVYNIGNCFGKNFSIAYNIVKIPPLQADKEDPISKSEIVVQFPCSDRFKPSYVHSFGLTPNYIVFVETPVKINLFKFLSSWSLWGANYMDCFESNETMGVWLHIADKKRKKYLNNKYRTSPFNLFHHINTYEDNGFLIVDLCCWKGFEFVYNYLYLANLRENWEEVKKNARKAPQPEVRRYVLPLNIDKADTGKNLVTLPNTTATAILCSDETIWLEPEVLFSGPRQAFEFPQINYQKYCGKPYTYAYGLGLNHFVPDRLCKLNVKTKETWVWQEPDSYPSEPIFVSHPDALEEDDGVVLSVVVSPGAGQKPAYLLILNAKDLSEVARAEVEINIPVTFHGLFKKS
B1 was tested, and the binding was “binds weakly”.
